{
  "source": "patent US6360743B1",
  "about": "“System for dispensing pharmaceutical active compounds” (AB Astra, priority 1992, dated 2002)",
  "assay": "Particle size distribution by four-stage cascade impactor",
  "format": "physicochemical",
  "conditions": "60 liters/minute",
  "key": {"[1]": {"conditions": "TURBUHALER inhaler, powdered budesonide"}},
  "note": "At least one compound was matched to its structure with a doubt left.",
  "data": [
    {"smiles": "CCCC1O[C@@H]2C[C@H]3[C@@H]4CCC5=CC(=O)C=C[C@]5(C)[C@H]4[C@@H](O)C[C@]3(C)[C@]2(C(=O)CO)O1", "note": "(stereo partly drawn) [budesonide]", "values": [
      {"measurement": "proportion of fine particles, TURBUHALER versus MDI", "setting": "comparator PULMICORT budesonide MDI", "value": "greater proportion of fine particles"},
      {"measurement": "proportion of delivered particles reaching the stage corresponding to a diameter of 1 to 4 microns", "setting": "[1]", "value": "more than half"},
      {"measurement": "proportion of delivered particles registering 7 microns or less", "setting": "[1]", "value": "about two-thirds"}
    ]}
  ]
}
